Laboratory results reported in US20060229302A1, “Tricyclic indole derivatives and their use in the treatment of alzheimer's disease” (priority 2003, published 2006).
pIC50: −log10 of the molar value. Some of these results come from one statement about several compounds together.

Protein sequences, listed by entry. Tags and fused reporters are not part of them. Residues count along the entry.
UniProt P56817, 46-501: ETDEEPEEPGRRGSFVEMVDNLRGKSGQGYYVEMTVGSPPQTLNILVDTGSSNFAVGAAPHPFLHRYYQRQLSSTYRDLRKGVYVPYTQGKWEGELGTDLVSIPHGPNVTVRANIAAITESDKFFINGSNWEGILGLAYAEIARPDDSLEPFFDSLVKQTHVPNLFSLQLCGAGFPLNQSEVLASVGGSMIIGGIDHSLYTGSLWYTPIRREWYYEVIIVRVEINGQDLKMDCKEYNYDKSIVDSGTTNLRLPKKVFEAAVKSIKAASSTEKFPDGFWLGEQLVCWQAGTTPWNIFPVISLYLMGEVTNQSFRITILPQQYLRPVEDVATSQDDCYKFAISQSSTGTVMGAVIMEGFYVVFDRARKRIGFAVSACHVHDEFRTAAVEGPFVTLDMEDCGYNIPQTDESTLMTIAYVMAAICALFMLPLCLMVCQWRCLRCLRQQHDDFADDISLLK
UniProt P07339, 65-412, species assumed: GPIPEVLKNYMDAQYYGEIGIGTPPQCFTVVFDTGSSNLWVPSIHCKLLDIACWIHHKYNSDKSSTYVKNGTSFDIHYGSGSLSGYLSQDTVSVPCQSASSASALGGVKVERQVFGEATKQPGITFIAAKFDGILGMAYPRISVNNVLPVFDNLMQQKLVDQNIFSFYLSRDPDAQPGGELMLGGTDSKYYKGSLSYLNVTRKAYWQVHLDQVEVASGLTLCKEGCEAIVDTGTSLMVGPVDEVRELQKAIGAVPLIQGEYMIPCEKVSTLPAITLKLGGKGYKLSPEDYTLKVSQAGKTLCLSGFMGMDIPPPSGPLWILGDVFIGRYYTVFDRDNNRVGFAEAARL

Tests used:
[1] = molecular target: Asp-2 (Homo sapiens, UniProt P56817); assay: Asp-2 inhibitory assay; format: biochemical; conditions: FAM-[SEVNLDAEFK]-TAMRA substrate, pH 4.5, 1 h room temperature; read-out: inhibition in the Asp-2 inhibitory assay
[2] = molecular target: Cathepsin D (Homo sapiens, UniProt P07339); assay: Cathepsin D inhibitory assay; format: biochemical; conditions: Asp-2 inhibitory assay versus Cathepsin D inhibitory assay

SMILES | pIC50 [1] | selectivity for Asp2 over CatD [2]
CCc1cn2c3c(cc(C(=O)N[C@@H](Cc4ccccc4)[C@H](O)CN[C@@H](C)C(=O)NC4CCCCC4)cc13)N(C)S(=O)(=O)CC2 [Example E105, N-[(1S,2R)-3-{[(1S)-2-(Cyclohexylamino)-1-methyl-2-oxoethyl]amino}-2-hydroxy-1-(phenylmethyl)propyl]-7-ethyl-1-methyl-3,4-dihydro-1H-[1,2,5]thiadiazepino[3,4,5-hi]indole-9-carboxamide 2,2-dioxide] | > 5.00 | > 100 fold
CCc1cc(CNC[C@@H](O)[C@H](Cc2ccccc2)NC(=O)c2cc3c4c(c2)c(CC)cn4CCS(=O)(=O)N3C)on1 [Example E104, 7-Ethyl-N-[(1S,2R)-3-{[(3-ethyl-5-isoxazolyl)methyl]amino}-2-hydroxy-1-(phenylmethyl)propyl]-1-methyl-3,4-dihydro-1H-[1,2,5]thiadiazepino[3,4,5-hi]indole-9-carboxamide 2,2-dioxide] | > 5.00 | > 100 fold
CCCc1cn2c3c(cc(C(=O)N[C@@H](Cc4ccccc4)[C@H](O)CNCc4cnn(CC)c4)cc13)N(C)S(=O)(=O)CC2.O=CO [Example E47, N-[(1S,2R)-3-{[(1-Ethyl-1H-pyrazol-4-yl)methyl]amino}-2-hydroxy-1-(phenylmethyl)propyl]-1-methyl-7-propyl-3,4-dihydro-1H-[1,2,5]thiadiazepino[3,4,5-hi]indole-9-carboxamide 2,2-dioxide formate salt] | > 5.00 | 
CCc1cn2c3c(cc(C(=O)N[C@@H](Cc4cc(F)cc(F)c4)[C@H](O)CNC4CC4)cc13)N(C)S(=O)(=O)CC2.O=CO [Example E39, N-{(1S,2R)-3-(Cyclopropylamino)-1-[(3,5-difluorophenyl)methyl]-2-hydroxypropyl}-7-ethyl-1-methyl-3,4-dihydro-1H-[1,2,5]thiadiazepino[3,4,5-hi]indole-9-carboxamide 2,2-dioxide formate salt] | > 5.00 | 
